Tested on: OATP1B2
Assay: Untargeted metabolomics of plasma and DRG, WT vs OATP1B2-deficient mice
Format: in vivo, mouse
Settings: untargeted metabolomics, WT vs OATP1B2-deficient mice
[1] = supplement sheet "Figure 5B" (volcano plot)
[2] = Figure 5B source data (volcano plot), log2 fold change of metabolite level

SMILES | Log2FoldChange (sheet "Figure 5C") | Log2FoldChange (supplement sheet "Figure 5B") | also measured
C[C@H](CCC(=O)O)[C@H]1CC[C@H]2[C@@H]3CC(=O)[C@@H]4C[C@H](O)CC[C@]4(C)[C@H]3CC[C@]12C [6-oxolithocholate] | – | – | Log2FoldChange [1]: 0.516
C[C@H](CCC(=O)O)[C@H]1CC[C@H]2[C@@H]3C(=O)C[C@@H]4C[C@H](O)CC[C@]4(C)[C@H]3C[C@H](O)[C@]12C [7-ketodeoxycholate] | – | – | Log2FoldChange [1]: 2.639
Cn1cnc2nc(N)[nH]c(=O)c21 [7-methylguanine] | 0.189 | – | –
CCCCCCC=CCCCCCCCCC(=O)O [10-heptadecenoate (17:1n7)] | 0.3219 | – | –
CCCCCCCCC=CCCCCCCCCC(=O)O [10-nonadecenoate (19:1n9)] | 0.251 | -0.1203 | –
C=CCCCCCCCCC(=O)O [10-undecenoate (11:1n1)] | – | – | Log2FoldChange [2]: -0.415
CCCCCC(O)C(O)C/C=C\CCCCCCCC(=O)O (stereo not drawn) [12,13-DiHOME] | – | 0.09761 | –
CC/C=C\C/C=C\CC(O)/C=C/C=C\C/C=C\CCCC(=O)O (stereo not drawn) [12-HEPE] | – | -0.1047 | –
CCCCC/C=C\C[C@H](O)/C=C/C=C\C/C=C\CCCC(=O)O [12-HETE] | 0.2869 | 0.05658 | –
O=C(O)CCCCCCCCCCCCCCCO [16-hydroxypalmitate] | – | – | Log2FoldChange [1]: 0.4222
CC(C)CCCCCCCCCCCCCCCCC(=O)O [18-methylnonadecanoate (i20:0)] | – | -0.1047 | –
C[C@H](O)CC(=O)OC(CC(=O)[O-])C[N+](C)(C)C (stereo partly drawn) [(S)-3-hydroxybutyrylcarnitine] | – | 0.1375 | –
N[C@@H](Cc1c(C2OC(CO)C(O)C(O)C2O)[nH]c2ccccc12)C(=O)O (stereo partly drawn) [C-glycosyltryptophan] | 0.1763 | 0.05658 | –
C[C@H](CCC(=O)O[C@@H]1O[C@H](C(=O)O)[C@@H](O)[C@H](O)[C@H]1O)[C@H]1CC[C@H]2[C@@H]3[C@H](O)C[C@@H]4C[C@H](O)CC[C@]4(C)[C@H]3CC[C@]12C [CDCA 24-G] | – | – | Log2FoldChange [1]: 6.614
Cn1ccc(=O)c(C(N)=O)c1 [N1-Methyl-4-pyridone-3-carboxamide] | – | – | Log2FoldChange [2]: -0.2515
Cn1cnc2c(ncn2[C@@H]2O[C@H](CO)[C@@H](O)[C@H]2O)c1=N [N1-methyladenosine] | 0.5261 | 0.08406 | –
Cn1cnc2c(ncn2[C@@H]2O[C@H](CO)[C@@H](O)[C@H]2O)c1=O [N1-methylinosine] | 0.546 | – | Log2FoldChange [1]: 0.275
CN(C)c1nc2c(ncn2[C@@H]2O[C@H](CO)[C@@H](O)[C@H]2O)c(=O)[nH]1 [N2,N2-dimethylguanosine] | 0.4751 | -0.074 | –
CC(=O)NCCC[C@H](NC(C)=O)C(=O)O [N2,N5-diacetylornithine] | – | – | Log2FoldChange [1]: 0.3448
CC(=O)NCCCC[C@H](NC(C)=O)C(=O)O [N2,N6-diacetyllysine] | – | – | Log2FoldChange [1]: 0.275
CC(=O)NC(CCCCN)C(=O)O (stereo not drawn) [N2-acetyllysine] | 0.3561 | 0.09761 | –
CC(=O)Nc1ccn([C@@H]2O[C@H](CO)[C@@H](O)[C@H]2O)c(=O)n1 [N4-acetylcytidine] | -0.1681 | – | Log2FoldChange [1]: 0.4436
C[N+](C)(C)CCCC[C@H](N)C(=O)O [N6,N6,N6-trimethyllysine] | 0.251 | – | –
CN(C)CCCC[C@H](N)C(=O)O [N6,N6-dimethyllysine] | – | – | Log2FoldChange [2]: -0.889
CC(=O)NCCCC[C@H](N)C(=O)O [N6-acetyllysine] | 0.1375 | 0.05658 | –
N[C@@H](CCCCNCC(=O)O)C(=O)O [N6-carboxymethyllysine] | 0.2265 | 0.02857 | –
CNCCCC[C@H](N)C(=O)O [N6-methyllysine] | -1 | – | Log2FoldChange [2]: -0.9714

SMILES | Log2FoldChange (sheet "Figure 5C") | Log2FoldChange (supplement sheet "Figure 5B") | also measured
O=C(O)C[C@H](Nc1ncnc2c1ncn2[C@@H]1O[C@H](CO)[C@@H](O)[C@H]1O)C(=O)O [N6-succinyladenosine] | 0.9928 | 0.2016 | –
C[N+](C)(C)CCCCC(=O)[O-] [N,N,N-trimethyl-5-aminovalerate] | 2.111 | – | Log2FoldChange [1]: 1.7866
C[N+]1(C)CCC[C@H]1C(=O)N1CCC[C@H]1C(=O)O [N,N-dimethyl-pro-pro] | 0.2388 | 0.02857 | –
C[C@@H](C(=O)O)N(C)C [N,N-dimethylalanine] | – | – | Log2FoldChange [1]: 0.275
O=C(O)CNC(=O)c1ccco1 [N-(2-furoyl)glycine] | – | – | Log2FoldChange [2]: -0.1844
CCCCCCC(NC(C)=O)C(=O)O (stereo not drawn) [N-acetyl-2-aminooctanoate*] | – | 0.1763 | –
CC(=O)NC(Cc1cn(C)cn1)C(=O)O (stereo not drawn) [N-acetyl-3-methylhistidine*] | – | – | Log2FoldChange [1]: 0.3103
CC(=O)N[C@H]1C(OP(=O)(O)O)O[C@H](CO)[C@@H](O)[C@@H]1O (stereo partly drawn) [N-acetyl-glucosamine 1-phosphate] | -0.0145 | – | –
CC(=O)NCCCNCCCC(=O)O [N-acetyl-isoputreanine] | – | 0.111 | –
CC(=O)N[C@@H](C)C(=O)O [N-acetylalanine] | – | 0.09761 | –
CC(=O)N[C@@H](CCCNC(=N)N)C(=O)O [N-acetylarginine] | 0.08406 | -0.0145 | –
CC(=O)N[C@@H](CC(N)=O)C(=O)O [N-acetylasparagine] | – | 0.08406 | –
CC(=O)N[C@@H](CCCNC(N)=O)C(=O)O [N-acetylcitrulline] | – | 0.111 | –
CC(=O)N[C@@H]1[C@@H](O)[C@H](O)[C@@H](CO)O[C@H]1NC(=O)C[C@H](N)C(=O)O [N-acetylglucosaminylasparagine] | 0.3448 | – | Log2FoldChange [1]: 0.3561
CC(=O)N[C@@H](CCC(N)=O)C(=O)O [N-acetylglutamine] | 0.3219 | – | Log2FoldChange [2]: -0.1844
CC(=O)N[C@@H](Cc1c[nH]cn1)C(=O)O [N-acetylhistidine] | – | 0.2016 | –
CC(=O)N[C@@H](CCCCNC(N)=O)C(=O)O [N-acetylhomocitrulline] | – | – | Log2FoldChange [1]: 0.433
CC[C@H](C)[C@H](NC(C)=O)C(=O)O [N-acetylisoleucine] | 0.3219 | 0.09761 | –
CC(=O)N[C@@H](CC(=O)c1ccccc1N)C(=O)O [N-acetylkynurenine (2)] | – | – | Log2FoldChange [1]: 0.4957
CC(=O)N[C@@H](CC[S+](C)[O-])C(=O)O (stereo partly drawn) [N-acetylmethionine sulfoxide] | 0.1375 | – | Log2FoldChange [1]: 0.4854
CSCCC(NC(C)=O)C(=O)O (stereo not drawn) [N-acetylmethionine] | 0.3103 | – | –
CC(=O)N[C@H]1[C@H]([C@@H](O)[C@@H](O)CO)O[C@@](O)(C(=O)O)C[C@@H]1O [N-acetylneuraminate] | 0.1763 | – | –
CC(=O)NC(Cc1ccccc1)C(=O)O (stereo not drawn) [N-acetylphenylalanine] | 0.2869 | 0.189 | –
CC(=O)NCCCCN [N-acetylputrescine] | 0.856 | 0.1763 | –
CC(=O)NC(CCCCn1c(C=O)ccc1CO)C(=O)O (stereo not drawn) [N-acetylpyrraline] | – | – | Log2FoldChange [1]: 0.2869
CC(=O)NC(CO)C(=O)O (stereo not drawn) [N-acetylserine] | – | 0.1375 | –
CC(=O)N[C@H](C(=O)O)[C@@H](C)O [N-acetylthreonine] | 0.09761 | – | –

Source: publication PMC10443802 (JCI Insight, 2023)
